Experimental data: publication PMC8192788
Results are given in words; binding and its absence hold for the method and conditions named. For part of these data: Binding seen in cells or lysates may run through a third protein. Some binding calls cover weakened binding; strength is not graded here. Blank lines part the entries; values can stand above or below the substance they belong to.

Chains of the proteins cited; added tags and fusions are not shown. Lines headed by an entry give the natural chain unless they say otherwise; changes in a name come on top.
UniProt P61026: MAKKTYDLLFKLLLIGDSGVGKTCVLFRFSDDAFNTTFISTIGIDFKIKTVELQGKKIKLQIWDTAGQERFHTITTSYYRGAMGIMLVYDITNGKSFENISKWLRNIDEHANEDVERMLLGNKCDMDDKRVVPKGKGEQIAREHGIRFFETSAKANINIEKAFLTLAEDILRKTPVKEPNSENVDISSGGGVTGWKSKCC
UniProt P05556: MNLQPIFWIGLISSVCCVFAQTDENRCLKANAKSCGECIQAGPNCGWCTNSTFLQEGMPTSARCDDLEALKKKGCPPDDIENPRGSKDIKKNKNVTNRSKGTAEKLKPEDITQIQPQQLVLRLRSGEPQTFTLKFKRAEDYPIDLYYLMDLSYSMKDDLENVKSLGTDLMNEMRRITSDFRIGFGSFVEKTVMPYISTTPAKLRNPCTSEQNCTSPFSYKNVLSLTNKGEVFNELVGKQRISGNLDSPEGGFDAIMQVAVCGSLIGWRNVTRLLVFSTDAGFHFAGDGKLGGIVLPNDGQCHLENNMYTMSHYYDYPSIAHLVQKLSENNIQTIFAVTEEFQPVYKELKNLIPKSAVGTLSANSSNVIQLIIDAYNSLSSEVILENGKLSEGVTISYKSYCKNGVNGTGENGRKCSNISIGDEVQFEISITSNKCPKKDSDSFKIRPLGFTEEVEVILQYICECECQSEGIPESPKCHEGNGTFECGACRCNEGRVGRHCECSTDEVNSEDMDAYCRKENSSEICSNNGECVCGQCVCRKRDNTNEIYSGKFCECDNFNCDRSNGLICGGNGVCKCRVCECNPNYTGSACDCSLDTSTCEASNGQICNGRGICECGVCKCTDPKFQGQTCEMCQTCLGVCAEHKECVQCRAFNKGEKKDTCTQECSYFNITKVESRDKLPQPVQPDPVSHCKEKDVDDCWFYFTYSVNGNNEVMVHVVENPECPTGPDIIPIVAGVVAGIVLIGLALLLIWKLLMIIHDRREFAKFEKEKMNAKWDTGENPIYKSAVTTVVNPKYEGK

Tests used:
[1] = target: RAB10 (human (endogenous in Ge518 and Ge269)) (UniProt P61026); test: co-IP; immunoprecipitation of RAB10 from Ge518 shCtrl vs. shGal-3 lysate, immunoblot for Gal-3; also Ge518 treated with MCP (significant decrease of co-precipitated Gal-3)
[2] = target: purified human Gal-3 (Biolegend) (human) (UniProt P17931); test: cell-free binding assay (coated plate, antibody detection by fluorescence); as a4, with MCP (modified citrus pectin, Gal-3 inhibitor) combined with RAB10 and added to Gal-3-coated wells; MCP concentration not stated for this assay; both purified
[3] = target: Galectin-3 (human (endogenous in Ge518 and Ge269)) (UniProt P17931); test: co-IP; β1 integrin and Gal-3 co-immunoprecipitation from GSCs (Supplementary Fig. 7A); which protein was precipitated is not given

binding [1]: binds
Substance: Galectin-3 (from UniProt P17931 1-250)

binding [2]: no binding (condition: with MCP)
Substance: recombinant human RAB10 (Prospec PRO-1361) (from UniProt P61026 1-200)

binding [3]: binds
Substance: β1 integrin (from UniProt P05556 21-798) (receptor)
